Measured values: paper PMC3855176
Results are given in words; binding and its absence hold for the method and conditions named. In cells and extracts the contact can be indirect. Some entries that bind do so weakly or less than the wild type.

Chains of the proteins cited; added tags and fusions are not shown. Lines headed by an entry give the natural chain unless they say otherwise; changes in a name come on top. A line that says so, or that is headed by a name, gives the form on record, which may keep a tag or linker.
UniProt P15311: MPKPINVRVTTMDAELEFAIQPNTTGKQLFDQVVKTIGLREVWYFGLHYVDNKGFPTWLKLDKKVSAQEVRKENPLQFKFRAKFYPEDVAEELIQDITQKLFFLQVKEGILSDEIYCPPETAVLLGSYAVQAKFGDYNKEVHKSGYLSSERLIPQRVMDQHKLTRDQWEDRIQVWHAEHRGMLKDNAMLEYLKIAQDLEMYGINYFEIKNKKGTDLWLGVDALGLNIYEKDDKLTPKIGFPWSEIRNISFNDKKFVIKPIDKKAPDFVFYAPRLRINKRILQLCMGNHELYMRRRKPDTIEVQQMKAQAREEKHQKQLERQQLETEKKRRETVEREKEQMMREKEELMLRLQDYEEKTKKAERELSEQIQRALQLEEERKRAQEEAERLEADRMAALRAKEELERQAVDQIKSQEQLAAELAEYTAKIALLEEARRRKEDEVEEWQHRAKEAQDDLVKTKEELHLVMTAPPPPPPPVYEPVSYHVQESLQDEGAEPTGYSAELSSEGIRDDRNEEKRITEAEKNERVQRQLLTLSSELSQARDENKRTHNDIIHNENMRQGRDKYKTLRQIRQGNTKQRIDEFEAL
myc-tagged DPYSL3 (dihydropyrimidinase-like 3) (Q14195, form named): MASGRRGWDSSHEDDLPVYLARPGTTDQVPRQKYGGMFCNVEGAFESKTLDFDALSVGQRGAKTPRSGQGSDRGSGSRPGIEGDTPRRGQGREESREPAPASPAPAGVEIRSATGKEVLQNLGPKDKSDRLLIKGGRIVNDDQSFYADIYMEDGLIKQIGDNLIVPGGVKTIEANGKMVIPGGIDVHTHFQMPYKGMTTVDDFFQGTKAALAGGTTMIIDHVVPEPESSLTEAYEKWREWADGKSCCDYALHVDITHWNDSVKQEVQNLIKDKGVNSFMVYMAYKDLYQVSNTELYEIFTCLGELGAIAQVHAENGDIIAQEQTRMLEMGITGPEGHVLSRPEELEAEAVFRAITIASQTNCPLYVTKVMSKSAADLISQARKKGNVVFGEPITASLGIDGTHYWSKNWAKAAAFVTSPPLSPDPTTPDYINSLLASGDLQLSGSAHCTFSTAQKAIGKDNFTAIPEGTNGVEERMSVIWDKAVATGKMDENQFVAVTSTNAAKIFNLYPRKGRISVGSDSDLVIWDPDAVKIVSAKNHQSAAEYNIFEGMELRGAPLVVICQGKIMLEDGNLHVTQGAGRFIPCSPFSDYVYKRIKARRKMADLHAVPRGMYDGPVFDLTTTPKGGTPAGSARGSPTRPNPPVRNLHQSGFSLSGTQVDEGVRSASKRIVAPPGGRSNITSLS
UniProt Q05397: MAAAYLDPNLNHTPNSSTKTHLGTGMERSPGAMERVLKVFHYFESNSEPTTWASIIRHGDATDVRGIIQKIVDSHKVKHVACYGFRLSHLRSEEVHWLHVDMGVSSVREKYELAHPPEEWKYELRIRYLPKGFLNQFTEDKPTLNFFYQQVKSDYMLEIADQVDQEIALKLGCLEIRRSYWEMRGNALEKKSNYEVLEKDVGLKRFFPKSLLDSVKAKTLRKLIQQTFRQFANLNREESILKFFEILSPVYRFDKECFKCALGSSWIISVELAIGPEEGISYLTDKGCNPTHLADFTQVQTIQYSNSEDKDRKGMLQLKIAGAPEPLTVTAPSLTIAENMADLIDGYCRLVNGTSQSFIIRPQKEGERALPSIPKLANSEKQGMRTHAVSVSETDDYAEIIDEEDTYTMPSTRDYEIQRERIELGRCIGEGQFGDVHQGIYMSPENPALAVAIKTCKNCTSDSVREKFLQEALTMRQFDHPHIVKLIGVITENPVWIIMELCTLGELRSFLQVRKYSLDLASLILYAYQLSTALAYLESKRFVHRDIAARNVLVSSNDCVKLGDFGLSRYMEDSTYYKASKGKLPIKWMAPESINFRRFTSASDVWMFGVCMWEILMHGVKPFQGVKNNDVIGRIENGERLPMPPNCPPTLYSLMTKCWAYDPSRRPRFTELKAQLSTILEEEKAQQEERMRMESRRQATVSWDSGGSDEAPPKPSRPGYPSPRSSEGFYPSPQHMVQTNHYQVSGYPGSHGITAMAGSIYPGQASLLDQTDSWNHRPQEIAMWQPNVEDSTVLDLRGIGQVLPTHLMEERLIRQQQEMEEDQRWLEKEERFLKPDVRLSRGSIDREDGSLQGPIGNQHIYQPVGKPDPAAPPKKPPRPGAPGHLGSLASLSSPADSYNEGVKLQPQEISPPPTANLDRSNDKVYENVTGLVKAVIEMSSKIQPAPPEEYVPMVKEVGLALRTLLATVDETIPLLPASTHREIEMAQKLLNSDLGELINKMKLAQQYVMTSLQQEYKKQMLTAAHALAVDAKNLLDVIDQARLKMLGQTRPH
UniProt Q9Y490: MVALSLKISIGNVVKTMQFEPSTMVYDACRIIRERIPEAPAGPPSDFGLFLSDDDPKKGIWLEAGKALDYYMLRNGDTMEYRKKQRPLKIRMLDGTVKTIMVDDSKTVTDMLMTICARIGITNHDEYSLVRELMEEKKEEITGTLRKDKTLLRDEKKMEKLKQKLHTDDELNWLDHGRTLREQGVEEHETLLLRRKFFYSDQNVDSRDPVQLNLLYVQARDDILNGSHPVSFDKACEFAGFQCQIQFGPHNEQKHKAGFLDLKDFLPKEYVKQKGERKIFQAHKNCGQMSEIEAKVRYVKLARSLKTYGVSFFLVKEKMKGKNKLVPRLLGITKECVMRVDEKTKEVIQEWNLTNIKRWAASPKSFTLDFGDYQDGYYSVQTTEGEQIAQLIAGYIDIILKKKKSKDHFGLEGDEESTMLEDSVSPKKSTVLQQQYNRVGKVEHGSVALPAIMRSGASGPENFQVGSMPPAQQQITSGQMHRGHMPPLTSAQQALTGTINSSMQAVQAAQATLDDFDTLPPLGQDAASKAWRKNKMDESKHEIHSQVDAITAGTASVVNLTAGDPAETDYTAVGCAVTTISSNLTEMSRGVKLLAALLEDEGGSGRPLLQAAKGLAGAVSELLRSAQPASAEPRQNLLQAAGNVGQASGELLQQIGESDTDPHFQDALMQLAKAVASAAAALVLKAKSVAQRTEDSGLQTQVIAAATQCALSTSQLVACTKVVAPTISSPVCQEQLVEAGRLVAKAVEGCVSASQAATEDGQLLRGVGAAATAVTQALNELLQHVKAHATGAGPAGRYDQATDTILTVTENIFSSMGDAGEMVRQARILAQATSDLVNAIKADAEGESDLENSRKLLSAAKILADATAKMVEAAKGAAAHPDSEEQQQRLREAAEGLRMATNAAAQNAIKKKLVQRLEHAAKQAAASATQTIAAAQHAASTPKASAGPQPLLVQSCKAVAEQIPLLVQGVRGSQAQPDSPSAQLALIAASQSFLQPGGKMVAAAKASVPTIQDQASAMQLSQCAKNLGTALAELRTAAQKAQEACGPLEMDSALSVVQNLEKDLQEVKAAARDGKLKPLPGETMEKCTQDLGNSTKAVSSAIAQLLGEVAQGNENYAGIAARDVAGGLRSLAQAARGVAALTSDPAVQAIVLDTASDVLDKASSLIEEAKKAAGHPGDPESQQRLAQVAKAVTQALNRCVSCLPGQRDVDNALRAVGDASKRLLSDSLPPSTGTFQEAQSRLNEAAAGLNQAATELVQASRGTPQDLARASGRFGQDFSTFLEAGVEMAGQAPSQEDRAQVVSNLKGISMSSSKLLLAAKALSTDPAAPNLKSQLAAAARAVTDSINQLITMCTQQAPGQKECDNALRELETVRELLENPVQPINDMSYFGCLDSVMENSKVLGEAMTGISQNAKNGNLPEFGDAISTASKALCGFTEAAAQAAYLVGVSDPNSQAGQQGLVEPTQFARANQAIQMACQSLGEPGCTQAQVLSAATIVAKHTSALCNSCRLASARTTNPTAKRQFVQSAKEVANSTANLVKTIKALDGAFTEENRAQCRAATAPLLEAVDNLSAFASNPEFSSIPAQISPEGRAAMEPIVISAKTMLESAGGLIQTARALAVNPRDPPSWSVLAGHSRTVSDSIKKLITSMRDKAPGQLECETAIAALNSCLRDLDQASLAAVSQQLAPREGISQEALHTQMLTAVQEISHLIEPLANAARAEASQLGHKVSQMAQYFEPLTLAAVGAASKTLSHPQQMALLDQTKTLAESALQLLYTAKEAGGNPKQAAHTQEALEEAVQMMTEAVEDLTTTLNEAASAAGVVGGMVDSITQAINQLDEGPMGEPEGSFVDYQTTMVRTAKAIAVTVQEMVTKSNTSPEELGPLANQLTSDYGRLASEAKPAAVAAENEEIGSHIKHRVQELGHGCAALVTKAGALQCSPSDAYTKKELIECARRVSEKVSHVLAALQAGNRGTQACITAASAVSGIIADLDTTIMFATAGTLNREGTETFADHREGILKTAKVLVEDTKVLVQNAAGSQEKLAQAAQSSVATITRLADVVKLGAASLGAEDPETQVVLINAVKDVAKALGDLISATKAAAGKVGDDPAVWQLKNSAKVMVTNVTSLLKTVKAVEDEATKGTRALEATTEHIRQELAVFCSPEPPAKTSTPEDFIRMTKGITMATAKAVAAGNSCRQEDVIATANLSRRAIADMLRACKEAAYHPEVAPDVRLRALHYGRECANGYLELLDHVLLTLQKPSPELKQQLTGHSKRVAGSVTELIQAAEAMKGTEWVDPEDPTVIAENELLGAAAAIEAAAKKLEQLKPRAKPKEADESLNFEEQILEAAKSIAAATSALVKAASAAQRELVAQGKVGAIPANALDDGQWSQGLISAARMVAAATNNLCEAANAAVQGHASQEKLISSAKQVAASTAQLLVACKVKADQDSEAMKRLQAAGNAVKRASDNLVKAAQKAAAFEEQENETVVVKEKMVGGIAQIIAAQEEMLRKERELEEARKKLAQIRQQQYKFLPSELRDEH

Key:
[1] = target: Ezrin (EZR) (human (endogenous in CFPAC-1 and PANC-1)) (UniProt P15311); assay: co-IP; lysate of PANC-1 cells stably expressing DPYSL3-myc or myc vector in NP-40 lysis buffer; anti-Ezrin antibody overnight at 4°C, protein G-sepharose; western blot
[2] = target: myc-tagged DPYSL3 (dihydropyrimidinase-like 3) (human) (UniProt Q14195); assay: co-IP; lysate of PANC-1 cells stably expressing DPYSL3-myc (or myc vector) in NP-40 lysis buffer (20 mM Tris-HCl pH 8.0, 100 mM NaCl, 0.5% NP-40, 5 mM EDTA); agarose-conjugated anti-c-myc antibody overnight at 4°C; western blot

| binding [1] | binding [2] | Substance |
| --- | --- | --- |
| binds | binds | focal adhesion kinase (FAK) (from UniProt Q05397 1-1052) |
| binds | binds | Talin1 (TLN1) (from UniProt Q9Y490 1-2541) |
| – | binds | Ezrin (EZR) (from UniProt P15311 1-586) |
